Source: paper doi:10.1101/2025.05.26.656073 (bioRxiv, 2025)
These are yes or no findings as the source states them, for the method shown. Some binding calls cover weakened binding; strength is not graded here.

T1: Orange Carotenoid Protein, light-adapted state (OCP^R), wild type, canthaxanthin-binding holo form (Synechocystis sp. PCC 6803), P74102
T1 chain: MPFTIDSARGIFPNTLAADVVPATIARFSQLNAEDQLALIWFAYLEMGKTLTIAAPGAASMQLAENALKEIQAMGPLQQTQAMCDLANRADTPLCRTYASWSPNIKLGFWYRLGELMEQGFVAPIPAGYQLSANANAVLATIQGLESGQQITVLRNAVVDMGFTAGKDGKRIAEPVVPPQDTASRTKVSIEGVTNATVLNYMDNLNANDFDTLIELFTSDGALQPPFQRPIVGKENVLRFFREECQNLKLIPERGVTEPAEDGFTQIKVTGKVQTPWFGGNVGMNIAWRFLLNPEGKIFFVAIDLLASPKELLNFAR

B1: Orange Carotenoid Protein, light-adapted state (OCP^R), wild type, canthaxanthin-binding holo form, P74102 1-317 (natural protein)
chain: T1 chain
B2: apo-OCP (carotenoid-free Orange Carotenoid Protein), P74102 1-317 (natural protein)
chain: T1 chain

How the values were obtained:
[1] = target: OCP(R27L) mutant, dark-adapted state (Synechocystis sp. PCC 6803) (UniProt P74102); assay: SEC
[2] = target: OCP(R27L) mutant, dark-adapted state (Synechocystis sp. PCC 6803) (UniProt P74102); assay: SAXS
[3] = target: T1, Orange Carotenoid Protein, …; assay: SEC; conditions: remark: other sources report otherwise
[4] = target: T1, Orange Carotenoid Protein, …; assay: transient grating spectroscopy; conditions: remark: other sources report otherwise
[5] = target: T1, Orange Carotenoid Protein, …; assay: transient grating spectroscopy; conditions: remark: other sources report otherwise

Molecule	binding [1]	binding [2]	binding [3]	binding [4]	binding [5]
OCP(R27L) mutant, dark-adapted state (from UniProt P74102 1-316)	no binding (tested: 200 µM)	no binding (tested: 100 µM)	–	–	–
B1	–	–	binds	binds	binds
B2	–	–	–	binds	–
